# Source: PubChem BioAssay AID1489 (National Center for Advancing Translational Sciences (NCATS), 2009)
# The chains behind the UniProt entries cited, without tags or fusion partners. Where a name states a change or a piece, a line headed by the entry shows the natural chain unless it says otherwise.
# UniProt Q6W5P4: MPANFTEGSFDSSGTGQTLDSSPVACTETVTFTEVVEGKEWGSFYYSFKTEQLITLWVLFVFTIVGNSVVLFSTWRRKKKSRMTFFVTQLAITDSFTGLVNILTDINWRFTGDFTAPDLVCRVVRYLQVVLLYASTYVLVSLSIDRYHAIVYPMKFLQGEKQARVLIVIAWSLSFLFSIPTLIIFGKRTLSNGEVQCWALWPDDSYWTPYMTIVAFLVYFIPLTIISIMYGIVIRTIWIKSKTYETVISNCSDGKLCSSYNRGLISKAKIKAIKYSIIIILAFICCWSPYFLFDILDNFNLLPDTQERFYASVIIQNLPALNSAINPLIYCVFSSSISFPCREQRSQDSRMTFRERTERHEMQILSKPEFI
# What follows is the remainder of the data, with few or none of the hits. Records with an inconclusive call do not appear. The source made the active and inactive calls. The call rests on the fitted dose curve; in most records, active means well fitted antagonist curve with a large enough effect in the main read-out, with a control signal flat; inconclusive means small, poorly fitted or top-dose-only effect; inactive means no such curve, though single readings can be large or run the other way.
# Molecular target: Neuropeptide S receptor (Homo sapiens) (UniProt Q6W5P4)
# Test: Confirmation Concentration-Response Assay for Antagonists of the Neuropeptide S Receptor: Calcium Signal Transduction
# Conditions: CHO-NPSR cells, NPS-induced calcium flux, FDSS; at 19.3 µM (top of the series)
# From the text: NIH Chemical Genomics Center [NCGC] NIH Molecular Libraries Probe Production centers Network [MLPCN] MLPCN Grant: X01-DA026210-01 Assay Submitter (PI): Heilig, Markus Alexander NCGC Assay Overview: Neuropeptide S receptor (NPSR), previously known as GPR154, is a recently de-orphanized G protein coupled receptor. Its endogenous ligand is the 20 amino acids peptide Neuropeptide S (NPS). […] NPS and its receptor are found in various tissues. Specifically they are highly expressed in brain areas that have been implicated in modulation of arousal, stress and anxiety. […] This change in intracellular calcium can be detected using a calcium indicator dye on a calcium imaging plate reader system (FDSS).
# NCGC Assay Protocol Summary: A Chinese hamster ovary (CHO) cell line stably expressing the NPS receptor (CHO-NPSR) was obtained from Dr. Heilig lab at NIAAA and maintained in F-12 Kaighn's media (Invitrogen, Carlsbad, CA, 21127) supplemented with 10 % FBS, 100 units/ml penicillin, 100 ug/ml streptomycin and 250 ug/ml geneticin at 37C, 5% CO2 in a humidified atmosphere. […] The assay was performed on a FDSS-7000 kinetic plate reader in 1536-well format. For both agonist (1-220s) and antagonist (221-400s) phases, the maximums of kinetic fluorescence responses were converted separately into text files using the instrument's software data export utility. […]
smiles,measurement,value
CN(C)c1ccc2nc3ccc(=[N+](C)C)cc-3sc2c1,"activity change, negative = inhibition",inactive: 7.9%
